## Primary screen of a compound library

Chains of the proteins cited; added tags and fusions are not shown.
UniProt E9BF75, entry or part of it: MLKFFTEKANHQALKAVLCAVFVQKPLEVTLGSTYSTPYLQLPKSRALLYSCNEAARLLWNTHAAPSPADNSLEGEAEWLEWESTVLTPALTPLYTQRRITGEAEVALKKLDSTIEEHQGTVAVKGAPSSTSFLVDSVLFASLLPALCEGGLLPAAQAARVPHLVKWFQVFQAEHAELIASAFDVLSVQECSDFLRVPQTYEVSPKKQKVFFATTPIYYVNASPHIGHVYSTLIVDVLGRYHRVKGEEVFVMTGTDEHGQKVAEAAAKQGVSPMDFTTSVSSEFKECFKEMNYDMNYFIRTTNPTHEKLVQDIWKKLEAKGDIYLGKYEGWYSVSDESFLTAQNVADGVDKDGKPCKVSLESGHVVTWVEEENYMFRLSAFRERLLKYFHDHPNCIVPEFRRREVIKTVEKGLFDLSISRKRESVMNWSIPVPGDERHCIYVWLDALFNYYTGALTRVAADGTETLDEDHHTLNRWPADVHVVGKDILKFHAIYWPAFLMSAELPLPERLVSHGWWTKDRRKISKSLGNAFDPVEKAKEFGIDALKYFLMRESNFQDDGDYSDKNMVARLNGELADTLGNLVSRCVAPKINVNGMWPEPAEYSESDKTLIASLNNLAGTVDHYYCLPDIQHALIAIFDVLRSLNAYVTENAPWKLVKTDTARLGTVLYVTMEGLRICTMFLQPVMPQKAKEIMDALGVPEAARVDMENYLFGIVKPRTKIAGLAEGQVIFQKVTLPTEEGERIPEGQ

Source: ChEMBL document CHEMBL3988442, “University of Dundee, Small-Polar-MMV Screening Library” (2021).

Results are percentages, as filed. How 0% and 100% were set is not recorded. Most values in the screen are low, and negative values occur. The compounds are a random part of those screened. A dash means the value is not listed here; it may have been measured.

A: 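Assay on Mycobacterium tuberculosis, filed only as a heat shock assay from Cornell; the read-out is not stated. The concentration is filed as 10 mM, unlikely as a test dose, so the dose is not known. Direction is inferred from retests: higher values go with stronger inhibition. Size under these conditions: about 69,000 compounds, about 930 of them at 50% or above in at least one test.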
B: 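Primary screen of methionyl-tRNA synthetase; the read-out is not stated. Target: Methionyl-tRNA synthetase (putative), Leishmania donovani (UniProt E9BF75). The test concentration is not given. Values are per cent inhibition. About 68,000 compounds were tested under these conditions; 0.035% (about 24) showed 50% or more at least once.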
C: 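Whole-cell assay for inhibitors of Mycobacterium tuberculosis growth, labelled Cornell in the record; the read-out is not stated. The concentration is filed as 10 mM, unlikely as a test dose, so the dose is not known. Higher means stronger inhibition (inferred from two other growth screens of the library). Of about 53,000 compounds tested this way, about 900 (1.7%) reached 50% or more in at least one test.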

SMILES	A	B	C
CSC(C)C(=O)N1CCCN(c2ncccc2C#N)CC1 (configuration not stated)	-15.12	5.307	8.894
[H][C@@]12CS(=O)(=O)C[C@]1([H])N(C(=O)c1cc(C(C)C)no1)CCN2CC1CC1	6.199	-	14.94
CN(C)c1cc(CNCc2ccc(N3CCOCC3)cc2)ccn1	-19.3	4.393	24.31
c1cc(CNCc2ccnc(N3CCCC3)c2)c2c(c1)OCCO2	-	10.11	-
CNc1cccc(C2CCCN(C(=O)c3cnccn3)C2)n1 (configuration not stated)	-13.4	16.67	-35.15
Cn1cnc2c1C(COCc1cccnc1)N(Cc1ccccn1)CC2 (configuration not stated)	29.54	10.46	31.1
COCC(O)CN1CCC(=O)N(Cc2ccccc2)Cc2ccccc21 (configuration not stated)	13.99	16.16	8.579
O=C(NC[C@]12COC[C@H]1CN(Cc1ccncc1)C2)c1ccco1	-	13.59	-
CCNC(=O)N1CCC(NC(=O)NCCc2cc3ccccc3o2)C1 (configuration not stated)	1.825	9.964	18.92
Cc1cc(C[C@@H]2COC[C@@H]2NC(=O)Cn2c(=O)oc3ccccc32)on1	4.583	11.33	-70.44
CC(NCCCN1CCCC1=O)c1ccc(F)cc1N(C)C (configuration not stated)	87.91	8.421	9.524
CC1(C)Cc2c(cnn2-c2cccc(F)c2)C(NC2CCSCC2)C1 (configuration not stated)	-14.74	8.219	9.864
COCC(=O)N1C[C@H]2CN(Cc3csc(C)n3)C(=O)[C@H]2C1	-	18.1	-
O=C(O)C(F)(F)F.[H][C@@]12OCCN(C(=O)c3occc3C)[C@@]1([H])CC[C@H]2OCCN(C)C	9.402	-	20.01
CC(C)c1nnc2ccc(N3CCC(C(N)=O)CC3)nn12	-6.62	7.884	-
Cc1csc(NC(=O)CN(C)CCOc2cccc(F)c2)n1	95.41	0.5263	5.926
CC(=O)Nc1ccsc1C(=O)Nc1cnc2n1CCCC2	-17.8	12.37	24.28
Cc1cnc(C(=O)N(C)Cc2nc(-c3ccccn3)no2)cn1	-9.285	0.6849	-10.61
[H][C@@]12COC[C@]1([H])[C@H](OCc1csc(C)n1)CN2Cc1ccccn1	-33.39	-	-0.09851
Cn1cc(Nc2cccc(C(=O)N(CC(N)=O)C3CCCC3)c2)cn1	11.87	10.65	-23.11
CCc1csc(C2CCCN(C(=O)c3ccc4[nH]nnc4c3)C2)n1 (configuration not stated)	0.1091	14.36	-
Cc1ncsc1CN1CC[C@H]2C[C@H](c3ccncn3)O[C@@H]2C1	-	14.71	-
O=C(NCC1(O)CCSCC1)c1ccoc1	11.6	2.41	-40.86
Cc1cc(C(=O)N2CCN(c3nc4c(C)cccc4s3)CC2)no1	96.55	6.775	-2.057
Cc1ccc(F)cc1S(=O)(=O)NCc1cccc(C(=O)N2CCCC2)c1	-19.71	9.29	-
Cc1nc(CN2CCN(C(C)c3nc(C4CC4)no3)CC2)no1 (configuration not stated)	-7.101	21.86	-
Cc1cnn(CCC(=O)N2CCCN(c3cccnn3)CC2)c1	-0.3206	14.58	-
CCS(=O)(=O)N1CCC2(CC1)CC(COC)N(c1ncccn1)C2.O=C(O)C(F)(F)F (configuration not stated)	-23.7	-	16.53
COCCO[C@H]1CCN(C(=O)c2ccco2)[C@H]1Cc1cnn(C)c1	10.74	17.96	18.74
CCn1c(C)nnc1CN(C)C1CCN(CCc2cccs2)C1 (configuration not stated)	-21.94	3.546	-3.739
Cc1oc(-c2ccsc2)nc1CC(=O)NCCS(C)(=O)=O	18.23	13.39	-32.06
CCOc1ccc(Cl)cc1C1CCCN1.Cl (configuration not stated)	-11.35	-	-3.998
COC(=O)CCC(=O)N(C/C=C/c1ccccc1)CCO	-19.21	4.02	-11.41
CNC(=O)c1nc(CC(=O)Nc2ccc3cc[nH]c3c2)no1	12.33	-8.009	-53.81
Cc1cc(CC(=O)NCC(O)c2ccc(OC(F)F)cc2)n[nH]1 (configuration not stated)	-12.83	1.799	29.43
CN(C)Cc1nnc(C2CCCN(c3nc(C(N)=O)cs3)C2)n1C (configuration not stated)	26.09	7.904	4.058
CC(CNCc1ccc(Cl)cc1)Oc1ccccn1.Cl (configuration not stated)	9.45	-	-4.198
Fc1cnc(N2CCn3cc(CNc4ccccn4)nc3C2)nc1.O=C(O)C(F)(F)F.O=C(O)C(F)(F)F	6.474	-	19.14
OCCC1CCN(c2ccnc3ccsc23)C1 (configuration not stated)	5.735	13.28	-13.49
CS(=O)(=O)N1CCN(c2ccnc(N3CCCCC3)n2)CC1	54.19	2.151	63
CS(=O)(=O)c1ccc(OCCNCc2ccc(F)cc2)cc1	-24.82	16.31	5.633
CN(C)C(=O)[C@H]1C[C@@H]2CCN(Cc3ccoc3)C[C@@H]2O1	-	13.95	-
OC1(Cn2ccc3ncccc32)CCN(Cc2cccs2)CC1	-4.367	19.79	21.63
O=C(O)C(F)(F)F.[H][C@]12CCN(Cc3c(C)noc3C)[C@@]1([H])CC[C@H](COCC1CC1)O2	-18.98	-	7.964
Cc1ccc(N2CCCc3sc(C(=O)NCc4cccnc4)nc32)nn1	-23.45	8.5	16.14
Cc1cnn(CC2CCCCN2Cc2cc(C)no2)c1 (configuration not stated)	0.2559	11.05	-
O=C(NCCc1c[nH]cn1)C1CCCN(C2CCOCC2)C1 (configuration not stated)	-9.555	20.49	-1.009

The first 6 entries again:

* CSC(C)C(=O)N1CCCN(c2ncccc2C#N)CC1 (configuration not stated) : A: -15.12%; B: 5.307%; C: 8.894%
* [H][C@@]12CS(=O)(=O)C[C@]1([H])N(C(=O)c1cc(C(C)C)no1)CCN2CC1CC1 : A: 6.199%; C: 14.94%
* CN(C)c1cc(CNCc2ccc(N3CCOCC3)cc2)ccn1 : A: -19.3%; B: 4.393%; C: 24.31%
* c1cc(CNCc2ccnc(N3CCCC3)c2)c2c(c1)OCCO2 : B: 10.11%
* CNc1cccc(C2CCCN(C(=O)c3cnccn3)C2)n1 (configuration not stated) : A: -13.4%; B: 16.67%; C: -35.15%
* Cn1cnc2c1C(COCc1cccnc1)N(Cc1ccccn1)CC2 (configuration not stated) : A: 29.54%; B: 10.46%; C: 31.1%